According to the supplement of paper PMC5949888:
Most values lie at the floor of the assay. Slopes are relative: functional sequences can read slightly below zero.

test system: Saccharomyces cerevisiae PS128 hsf1 delta, HSF1(1-493) fusion; assay: growth estimate (transactivation domain function in HSF1 fusion, heat-shock survival) (a.u. (slope of normalised read count over time)); higher = stronger growth at 37°C, i.e. more transactivation activity; details: library: random library

Substance	growth estimate
SGTQHLG	< -0.25
SGVAVLIADCKPVFAGLIPV	< -0.25
SGVGERRYKRSLRLVAELMI	< -0.25
SGVLEGVAQKVYSRAMLNVV	< -0.25
SGVNN	< -0.25
SGVRAQSLTRLYGLGGVTRR	< -0.25
SGVRVNDRHGIRSCRIAEEE	< -0.25
SGVSRWLPCPGGIFQMFRNA	< -0.25
SGWPGTGFRGSNGPAILFRC	< -0.25
SGWYLTERRGLV	< -0.25
SGY	< -0.25
SGYAHPCCTPKLTILATS	< -0.25
SGYKAH	< -0.25
SHADICDCHQRAKNLQTRL	-0.246
SHAGH	< -0.25
SHCVSYGPRTADLRPSQSFL	< -0.25
SHDTL	< -0.25
SHEGCESTGLPQHAVFYLLA	< -0.25
SHEVAGTRLFQGYDEWSLIG	0.527
SHFRPMGMVVITGA	< -0.25
SHG	< -0.25
SHGRRVEERA	< -0.25
SHGVLQPWHLHSNALD	< -0.25
SHHLLRYCDLDARIWAHGGL	< -0.25
SHHLYKVNARDTWLAISTKW	< -0.25

Substance	growth estimate
SHKRAEEV	< -0.25
SHLMDRDRAVLQNALKTCNR	< -0.25
SHN	< -0.25
SHPDPEIHRIVYT	< -0.25
SHPGCRGIRSWLR	-0.25
SHPQSRVK	< -0.25
SHPRCTVKSPEFLCRSHNRP	< -0.25
SHPRSYPLLLHEDPAQLYIG	< -0.25
SHPTAST	< -0.25
SHRCV	< -0.25
SHSQP	< -0.25
SHTD	-0.241
SHTSNVPNWREEVTGDCEIA	< -0.25
SHWHRISKLAWEWHSGS	< -0.25
SHYLSGVTS	< -0.25
SIASAYMSSHGRYSRGRSAE	< -0.25
SIAW	< -0.25
SIDKARTVCCGRYQSKANRA	< -0.25
SIDRPRITH	< -0.25
SIEGLAAASPRGTIRSKVC	< -0.25
SIFKSTMSEIRVGVIRSVLE	< -0.25
SIGLGALMITAIGSGLYRCV	< -0.25
SIGNPVQHSV	< -0.25
SIGPVICISSSFNYQSIHTT	< -0.25
SIGVKLESVRIAYRAQLSPA	< -0.25

Substance	growth estimate
SIHGVDTGLVRFRREAKKIP	-0.127
SIHSAMTNPKPPGHLRLSSV	< -0.25
SIKDGDELFCLARHSTSVLS	< -0.25
SIKQGTWNAPGR	< -0.25
SIL	< -0.25
SILEEQLSGLSLLGVIEVAA	< -0.25
SILGYSPM	-0.239
SILLGVAISRAK	< -0.25
SILQPLQLV	< -0.25
SILRAA	< -0.25
SILSGTLRVTDRNYAHF	< -0.25
SINQWCDAIAV	< -0.25
SINVSSFIGAGLLSFDRFRL	< -0.25
SIPCKALLGDVVGRVRVSWR	< -0.25
SIPGFQALEIFSSWAERII	< -0.25
SIR	< -0.25
SIRG	< -0.25
SIRGGHFSPACMEHGMPTNA	< -0.25
SIRGYLCMGDAQFGGAPPRL	< -0.25
SIRHRPSSRVCWSKRGSMLY	< -0.25
SIRPTSLRRPPAGTTRACRG	< -0.25
SIRSTVFSSVRDGHGVEQSR	< -0.25
SIRVATSPSGQKHGLTGASV	< -0.25
SIRVGVAPHFI	< -0.25
SISASFGCI	< -0.25

Random excerpt: four records from the list
Substance	growth estimate
SHEVAGTRLFQGYDEWSLIG	0.527
SIKQGTWNAPGR	< -0.25
SGVRAQSLTRLYGLGGVTRR	< -0.25
SIRVGVAPHFI	< -0.25

(further entries)

Substance	growth estimate
SISATVWVHGRISRMSLL	< -0.25
SISGRFIGGLGNRRLTWYRN	< -0.25
SISIPKSCLFLGWARKDRSD	< -0.25
SISLAAFRISVITV	< -0.25
SISR	-0.245
SISTSVRDGAIATPRSVVSM	< -0.25
SITDDGPFGGVMKKWHLGVT	< -0.25
SITDSPGKVTLAMGEGPVTA	< -0.25
SIVGDRQRSR	< -0.25
SIVGVKIR	< -0.25
SIVPRFGYVPTVAHVVQLPD	< -0.25
SIWKSAKIQI	< -0.25
SIYCPLDSIFFTGVGMILTL	< -0.25
SIYDANIGRYLVQLPDHF	-0.236
SIYRSPLDGTT	< -0.25
SKAGARGS	< -0.25
SKATPW	< -0.25
SKAYISNLNRQVEGRGNQDT	< -0.25
SKCGPSCRTGWVLMYARG	< -0.25
SKCV	-0.244
SKEGCNGTHRWDTDFSKSPG	< -0.25
SKEQSARYVAMGRDVRWCGK	< -0.25
SKFFAKEIVRTGSGDEMTTR	< -0.25
SKGGVSGHCGSIGVEQPSSA	< -0.25
SKGKGRLRTVLKRVRTLDRL	< -0.25
